{"source": "the supplement of paper PMC9744312", "note": "Where a name gives a salt, the structure may show the parent alone. This is one part of the list. The data scatter; read single values as rough.", "data": [{"tested_on": "Peyronie's disease tunica albuginea primary fibroblasts", "test": "cell viability (DRAQ5 nuclear stain) relative to TGF-beta1-only control; higher = more viable cells", "conditions": "10 µM; TGF-beta1 10 ng/mL; 72 h", "units": {"cell viability": "%"}, "values": [{"smiles": "CS(=O)(=O)Nc1ccc([N+](=O)[O-])cc1Oc1ccccc1", "note": "[Nimesulide]", "cell viability": 99.1}, {"smiles": "CCn1cc(C(=O)O)c(=O)c2cc(F)c(N3CCNC(C)C3)c(F)c21", "note": "(stereo not drawn) [Lomefloxacin HCl]", "cell viability": 92.9}, {"smiles": "CCn1cc(C(=O)O)c(=O)c2cc(F)c(N3CCNC(C)C3)c(F)c21", "note": "(stereo not drawn) [Lomefloxacin]", "cell viability": 88}, {"smiles": "CC(C)CN(C[C@@H](O)[C@H](Cc1ccccc1)NC(=O)O[C@H]1CCOC1)S(=O)(=O)c1ccc(N)cc1", "note": "[Amprenavir]", "cell viability": 96.8}, {"smiles": "CCC1=C[C@@H]2CN(C1)Cc1c([nH]c3ccccc13)[C@@](C(=O)OC)(c1cc3c(cc1OC)N(C)[C@H]1[C@@](O)(C(=O)OC)[C@H](OC(C)=O)[C@]4(CC)C=CCN5CC[C@]31[C@@H]54)C2", "note": "[Vinorelbine Tartrate]", "cell viability": 74.8}, {"smiles": "OCc1ccccc1", "note": "[Benzyl alcohol]", "cell viability": 99.2}, {"smiles": "CNC(=C[N+](=O)[O-])NCCSCc1csc(CN(C)C)n1", "note": "[Nizatidine]", "cell viability": 91.8}, {"smiles": "CC1(C)[C@@H](O[C@H]2O[C@H](C(=O)O)[C@@H](O)[C@H](O)[C@H]2O[C@@H]2O[C@H](C(=O)O)[C@@H](O)[C@H](O)[C@H]2O)CC[C@]2(C)[C@H]3C(=O)C=C4[C@@H]5C[C@@](C)(C(=O)O)CC[C@]5(C)CC[C@@]4(C)[C@]3(C)CC[C@@H]12", "note": "[Ammonium Glycyrrhizinate]", "cell viability": 93.9}, {"smiles": "C[C@]12C=CC(=O)C=C1CC[C@@H]1[C@@H]2C(=O)C[C@@]2(C)[C@H]1CC[C@]2(O)C(=O)CO", "note": "[Prednisone]", "cell viability": 96.3}, {"smiles": "CCOC(=O)CCC(=O)O[C@H]1[C@H](O[C@@H]2[C@@H](C)[C@H](O[C@H]3C[C@@](C)(OC)[C@@H](O)[C@H](C)O3)[C@@H](C)C(=O)O[C@H](CC)[C@@](C)(O)[C@H](O)[C@@H](C)C(=O)[C@H](C)C[C@@]2(C)O)O[C@H](C)C[C@@H]1N(C)C", "note": "[Erythromycin Ethylsuccinate]", "cell viability": 84.8}, {"smiles": "C[C@@H]1CN(c2c(F)c(N)c3c(=O)c(C(=O)O)cn(C4CC4)c3c2F)C[C@H](C)N1", "note": "[Sparfloxacin]", "cell viability": 88.9}, {"smiles": "C[C@@H]1O[C@@H]1P(=O)(O)O", "note": "[Fosfomycin Disodium]", "cell viability": 93.2}, {"smiles": "C[C@@H]1O[C@@H]1P(=O)(O)O", "note": "[Fosfomycin Tromethamine]", "cell viability": 87.1}, {"smiles": "NC(=O)c1ncn([C@@H]2O[C@H](CO)[C@@H](O)[C@H]2O)c1N", "note": "[AICAR (Acadesine)]", "cell viability": 91.2}, {"smiles": "CCC(=O)O[C@H]1[C@H](O[C@@H]2[C@@H](C)[C@H](O[C@H]3C[C@@](C)(OC)[C@@H](O)[C@H](C)O3)[C@@H](C)C(=O)O[C@H](CC)[C@@](C)(O)[C@H](O)[C@@H](C)C(=O)[C@H](C)C[C@@]2(C)O)O[C@H](C)C[C@@H]1N(C)C", "note": "[Erythromycin estolate]", "cell viability": 55.5}, {"smiles": "CC(c1cc2ccccc2s1)N(O)C(N)=O", "note": "(stereo not drawn) [Zileuton]", "cell viability": 70.4}, {"smiles": "COc1cc(C)c(/C=C/C(C)=C/C=C/C(C)=C/C(=O)O)c(C)c1C", "note": "[Acitretin]", "cell viability": 74.3}, {"smiles": "CC(C)OC(=O)CCC/C=C\\C[C@@H]1[C@@H](CC[C@@H](O)CCc2ccccc2)[C@H](O)C[C@@H]1O", "note": "[Latanoprost]", "cell viability": 83.3}, {"smiles": "CN(C)CCC=C1c2ccccc2C=Cc2ccccc21", "note": "[Cyclobenzaprine HCl]", "cell viability": 91.4}, {"smiles": "CN(C)CCc1c[nH]c2ccc(C[C@H]3COC(=O)N3)cc12", "note": "[Zolmitriptan]", "cell viability": 100}, {"smiles": "C[N+]1(C)CCC(=C(c2ccccc2)c2ccccc2)CC1", "note": "[Diphemanil Methylsulfate]", "cell viability": 93.4}, {"smiles": "CNNCc1ccc(C(=O)NC(C)C)cc1", "note": "[Procarbazine HCl]", "cell viability": 99.1}, {"smiles": "O=c1[nH]c(=O)n([C@H]2C[C@H](O)[C@@H](CO)O2)cc1F", "note": "[Floxuridine]", "cell viability": 70.8}, {"smiles": "Oc1ccc(O)cc1", "note": "[Hydroquinone]", "cell viability": 89.1}, {"smiles": "COc1cc2nc(N3CCN(C(=O)C4CCCO4)CC3)nc(N)c2cc1OC", "note": "(stereo not drawn) [Terazosin HCl Dihydrate]", "cell viability": 86.2}, {"smiles": "COc1cc2nc(N3CCN(C(=O)C4CCCO4)CC3)nc(N)c2cc1OC", "note": "(stereo not drawn) [Terazosin HCl]", "cell viability": 86.1}, {"smiles": "NC(=O)[C@@H]1CC[C@@H]2CN1C(=O)N2OS(=O)(=O)O", "note": "[Avibactam sodium]", "cell viability": 96.9}, {"smiles": "Nc1ccn(C[C@@H](CO)OCP(=O)(O)O)c(=O)n1", "note": "[Cidofovir]", "cell viability": 87.7}, {"smiles": "FC(F)(F)c1ccc(/C=C/c2nc(COc3ccc(CCCCn4ccnn4)cc3)co2)cc1", "note": "[Mubritinib (TAK 165)]", "cell viability": 119}, {"smiles": "CN(C)CCCOc1nn(Cc2ccccc2)c2ccccc12", "note": "[Benzydamine HCl]", "cell viability": 95.8}, {"smiles": "O=C(O)COc1nn(Cc2ccccc2)c2ccccc12", "note": "[Bendazac]", "cell viability": 91.3}, {"smiles": "OC[C@@H](O)[C@@H](O)[C@H](O)[C@@H](O)CO", "note": "[Sorbitol]", "cell viability": 95.8}, {"smiles": "CC(=O)OCC(=O)[C@@]1(O)CC[C@H]2[C@@H]3CCC4=CC(=O)CC[C@]4(C)[C@H]3C(=O)C[C@@]21C", "note": "[Cortisone acetate]", "cell viability": 88}, {"smiles": "CCCCC(=O)O[C@]1(C(=O)CO)[C@@H](C)C[C@H]2[C@@H]3CCC4=CC(=O)C=C[C@]4(C)[C@@]3(F)[C@@H](O)C[C@@]21C", "note": "[Betamethasone Valerate]", "cell viability": 80.4}, {"smiles": "O=C(Nc1cc(Cl)cc(Cl)c1O)c1c(O)c(Cl)cc(Cl)c1Cl", "note": "[Oxyclozanide]", "cell viability": 88.8}, {"smiles": "O=C(O)Cc1ccccc1Nc1c(Cl)cccc1Cl", "note": "[Diclofenac Diethylamine]", "cell viability": 92.7}, {"smiles": "O=C(O)Cc1ccccc1Nc1c(Cl)cccc1Cl", "note": "[Diclofenac Sodium]", "cell viability": 81.1}, {"smiles": "O=C(O)Cc1ccccc1Nc1c(Cl)cccc1Cl", "note": "[Diclofenac Potassium]", "cell viability": 92.7}, {"smiles": "C[C@@H]1CC(=O)NN=C1c1ccc(NN=C(C#N)C#N)cc1", "note": "[Levosimendan]", "cell viability": 88.3}, {"smiles": "CNC(=O)c1ccc2cc([C@@]3(O)CCn4cncc43)ccc2c1", "note": "[TAK-700 (Orteronel)]", "cell viability": 64}, {"smiles": "CC(=O)Oc1cc(C(F)(F)F)ccc1C(=O)O", "note": "[Triflusal]", "cell viability": 95.3}, {"smiles": "CS(=O)(=O)c1ccc([C@@H](O)[C@@H](CO)NC(=O)C(Cl)Cl)cc1", "note": "[Thiamphenicol]", "cell viability": 91.6}, {"smiles": "CO/N=C(\\C(=O)N[C@@H]1C(=O)N2C(C(=O)[O-])=C(C[n+]3ccn4ncccc43)CS[C@H]12)c1nsc(N)n1", "note": "[Cefozopran hydrochloride]", "cell viability": 73.4}]}]}
